Source: US20120283280A1, “IMIDAZOTETRAZINONE-BASED COMBI-MOLECULES” (priority 2011, published 2012)
Some results were stated once for a whole list of compounds, not compound by compound.

Tested on: DU145 cells
Test: Annexin V binding analysis (apoptosis)
Format: cell-based, human
Conditions: 48 h exposure
Method: Annexin V binding Analysis: Cells were pre-incubated in 6-well plates until confluence and then exposed to a dose range of each drug over a period 48 h. The cells were subsequently harvested and incubated with annexin V-FITC and propidium iodide (PI) using the apoptosis Detection Kit (BD Bioscience Pharmingen, USA) and the supplier's protocol. Annexin V-FITC and PI binding were analyzed using a Becton-Dickinson FACScan. Data were collected using logarithmic amplification of both the FL1 (FITC) and FL2 (PI) channels. Quadrant analysis of coordinate dot plots was performed with CellQuest software.
Induction of Apoptosis: Annexin V-FITC (FL1-H) and PI (FL2-H) staining (detected by flow cytometry) was used to distinguish viable (PI-/FITC−), early apoptotic (PI-/FITC+), late apoptotic (PI+/FITC+) and necrotic (PI+/FITC−) cells. […] JDF04R, Iressa and MTZ however, induced only barely detectable levels of apoptosis (<10%). The results are indicative that the combined EGFR TK inhibitory and DNA damaging properties of JDF12 can induce more cell apoptosis than observed with a single-function drug (e.g. Iressa and MTZ) alone (FIG. 7a-c).

Structure (SMILES) | levels of apoptosis
Nc1[nH]cnc1C(=O)Nc1ccc2ncnc(Nc3cccc(Cl)c3)c2c1 [JDF04R] | < 10%
NC(=O)c1ncn2c(=O)n(CCCl)nnc12 [MTZ, 8-carbamoyl-3-(2-chloroethyl)imidazo[5,1-d]-1,2,3,5-tetrazin-4(3H)-one] | < 10%
